According to the supplement of paper PMC12578635:
Some of the results follow. No stated cut-off is given here; in the data, active = 150% or more and inactive = the rest. Repeats are few or missing, and single values can be far off.

tested on: Staphylococcus aureus JE2-lux inside RAW 264.7 macrophages; test: intracellular bacterial bioluminescence relative to DMSO vehicle; higher = higher intracellular bacterial metabolic activity; conditions: 10 µM; treatment time 4 h; gentamicin 50 µg/ml

Intracellular bacterial bioluminescence, inactive:
CN(c1cncc(C(=O)NCc2cccnc2)c1)S(=O)(=O)c1ccccc1 117%
CC(=O)Nc1ccc(S(=O)(=O)Nc2ccc(O)c3ccccc23)cc1 92.2%
CC(=O)Cc1nsc(NC(=O)c2cc(-c3ccc(Cl)cc3Cl)oc2C)n1 105%
Cc1cc(C)c2nc(NC(=O)c3cccc(C(F)(F)F)c3)sc2c1 129%
COc1ccc(NC(=S)N2CCC(n3c(C)nc4cc(F)ccc43)CC2)cc1 91.9%
CCc1cc2cc(C)ccc2nc1SCC(=O)NNC(=O)c1ccc(OC)cc1 84%
Cc1nc2ccc(C(=O)NC(c3ccccc3)c3cccnc3)cc2[nH]1 (stereo not given) 116%
CCOc1ccccc1-c1nc(Cn2nc(-c3ccc(OC)cc3)c3c(C)onc3c2=O)c(C)o1 85.7%
COc1cccc2sc(NNC(=O)c3cc(-c4cccs4)nc4ccccc34)nc12 103%
COc1cccc(/C=C/c2nc(C#N)c(N3CCN(C(=O)c4ccccc4Cl)CC3)o2)c1 126%
CCn1c(SCc2nnc(-c3ccc(OC)c(OC)c3)o2)nc2ccccc2c1=O 76.9%
Cc1ccc(C(=O)Nc2nc(-c3ccc(C)s3)ns2)cc1 127%
CCN1CCN(c2nc3ncn(CC(=O)Nc4ccc(F)c(C)c4)c(=O)c3s2)CC1 99.4%
COC(=O)c1ccc(C(=O)NC(=S)Nc2nc3c(s2)CCc2ccccc2-3)cc1 119%
Cc1ccc(NC(=S)NCCNc2nc3cc4c(cc3cc2C#N)OCO4)cc1C 120%
O=C(Nc1cccc(Cl)c1)c1cc(-c2ccc3c(c2)OCCO3)on1 136%
Cc1sc2ncnc(SCC(=O)Nc3sc(-c4ccccc4)cc3C(N)=O)c2c1C 96.3%
Cc1n[nH]c2c1C(C(=O)c1cccc(Cl)c1)CC(=O)N2 (stereo not given) 89.1%
COc1ccc(C(=O)C2CCN(CC(=O)Nc3ccccc3F)CC2)cc1 94.7%
Cc1n[nH]c2c1C(C(=O)c1ccc3c(c1)OCCO3)CC(=O)N2 (stereo not given) 112%
Cc1cc2c(cc1C)NC(CC(=O)Nc1ccccc1[N+](=O)[O-])C(=O)N2 (stereo not given) 105%
Cc1ccc(NC(=O)N2CCCC2C(=O)Nc2ccccc2Cl)cc1 (stereo not given) 109%
COc1ccc(Nc2cc(C)nc(-n3cc([N+](=O)[O-])cn3)n2)cc1Cl 46.4%
O=C(CN1N=NC2C(=O)N(c3ccc(Br)cc3)C(=O)C21)Nc1ccccc1[N+](=O)[O-] (stereo not given) 106%
COc1ccc(S(=O)(=O)NC(=N)NCCc2ccc(Cl)cc2)cc1OC 62.7%
O=C(NCc1ccc(F)cc1)C1CCN(c2nc(-c3ccccc3)no2)CC1 112%
COCCNC(=S)N1CCCN(c2nc3cc4c(cc3cc2C#N)OCO4)CC1 95.5%
CCCCNC(=O)c1cc(-c2ccc(OC)cc2)nc2n[nH]c(-c3ccc(OC)cc3)c12 86.4%
Cc1ccc(N/C=C(\C#N)c2nc(-c3ccc([N+](=O)[O-])cc3)cs2)cc1Cl 112%
O=C(CS(=O)(=O)c1ccccc1)Nc1ccc2c(c1)C(=O)NC2=O 127%
O=C(CCn1cnc2ccccc2c1=O)NC1CCC(=O)NC1c1ccc(F)cc1 (stereo not given) 91.1%
Cc1ccc2onc(CNC(=O)N3CCCC3)c2c1 95.3%
O=C(OC1CCCCC1)c1cc2cc([N+](=O)[O-])ccc2oc1=O 121%
O=C(c1ccc(COc2ccc(F)cc2)o1)n1cccn1 89.3%
CCn1c(=O)c(C)nc2cc(-c3noc(C(NS(=O)(=O)c4ccc(C)cc4)C(C)C)n3)ccc21 (stereo not given) 108%
O=C(O)c1cnc(N2CCC(N3CCCCC3)CC2)c(NS(=O)(=O)c2ccccc2)c1 95.1%
Cc1cc(C)c(C#N)c(SCC(=O)Nc2cccc3cccnc23)n1 109%
CCOC(=O)N1CCN(C(=O)CSc2ccnc3c2c(=O)n(C)c(=O)n3C)CC1 93.5%
CSc1ccc(CNC(=O)c2nccn2Cc2ccccc2C)cc1 4.42%
COc1ccc(CNC(=O)CSc2nc3[nH]ncc3c(=O)n2-c2ccccc2)cc1 110%
CC1CN(C(c2cccs2)c2sc3ncnn3c2O)CC(C)O1 (stereo not given) 117%
Cc1cc(C)n2nc(C(=O)NC(c3ccccc3)c3cccnc3)c(Cl)c2n1 (stereo not given) 78.5%
COc1ccc(C)cc1NC(=O)C1CCCN(C(=O)Nc2ccc(F)cc2)C1 (stereo not given) 118%
Cc1cc(O)nc(SCc2cn3cccnc3n2)n1 119%
Cc1oc(-c2ccc(F)cc2)nc1C(=O)NC(c1ccccc1)c1cccnc1 (stereo not given) 98.2%
COc1ccc(OC)c2[nH]c(=O)c(CCNC(=O)c3cc4ccccc4oc3=O)cc12 96.8%
COc1ccccc1CCNC(=N)NS(=O)(=O)c1ccc(F)cc1 75%
CC(C)Cn1c(=O)c2ccc(C(=O)NC3CCCC3)cc2n2c(=S)[nH]nc12 123%
CCOC(=O)c1ccccc1NC(=O)CSc1ncnc2c1nnn2-c1ccc(C)cc1 89.5%
CN(C)S(=O)(=O)c1ccc2nc(NC(=O)C(c3ccccc3)c3ccccc3)sc2c1 123%
CCOc1ccccc1NC(=O)NCCNc1nc2cc(C)c(C)cc2cc1C#N 48%
O=C(CN(C(=O)Cn1nnc2ccccc21)c1ccccc1)NCC1CCCO1 (stereo not given) 119%
COc1ccc(-c2nc(OC)c3c4c(sc3n2)CCCC4)cc1 104%
COc1cc2ccccc2cc1C(=O)Nc1ccc2c(c1)C(=O)N(C)C2=O 142%
Cc1oc2c(O)c(O)ccc2c(=O)c1-c1ccccc1 96.8%
COc1cc(/C=N/n2c(C)cc(C)c(C#N)c2=O)ccc1OC(C)=O 87.9%
CN(C)C(=O)c1csc2nc(-c3ccc(NC(=O)c4ccc(Cl)nc4)cc3)cn12 66%
CCC(CC)C(=O)N1CC(=O)Nc2ccc(Cl)cc2C1c1ccc(F)cc1 (stereo not given) 73.8%
COCCn1c(N)c(S(=O)(=O)c2cccc(C)c2)c2nc3ccccc3nc21 6.67%
Cc1nn(C)cc1C(=O)NC1CCN(c2nc3c(c(=O)[nH]2)CCCC3)CC1 109%
Cc1ccc2nc(-n3nc(C)c4c3NC(=O)CC4c3ccc(F)c(F)c3)sc2c1 (stereo not given) 93.2%
CC(C)OCCCNC(=O)c1c(N)n(/N=C/c2ccccc2O)c2nc3ccccc3nc12 82.8%
O=C(CSc1nc2c(c(=O)n1-c1ccc(F)cc1)SCC2)NCC1CCCO1 (stereo not given) 93.5%
Cc1cc(Cl)ccc1OCC(=O)N/N=C1/C(=O)Nc2ccc(Br)cc21 115%
Oc1c(C(c2ccco2)N2CCC3(CC2)OCCO3)sc2ncnn12 (stereo not given) 93.6%
CC1C(=O)N2CCCc3cc(NC(=O)COc4ccc5ccccc5c4)cc1c32 (stereo not given) 64.1%
CCOc1cc(/C=C2/SC(=S)N(NC(=O)c3ccccc3OC)C2=O)ccc1O 67.8%
CC(C)(C)c1nc2ccccc2c2nn(CC(=O)N3CCNC(=O)C3(C)C)c(=O)n12 93.2%
CC(=O)N1N=C(c2ccccc2)CC1c1ccc2nccnc2c1 (stereo not given) 107%
O=C(CCCS(=O)(=O)c1ccc(F)cc1)Nc1ncnc2sccc12 85.9%
COc1cc(/C=C2/SC(=S)N(Nc3ccc([N+](=O)[O-])cc3[N+](=O)[O-])C2=O)ccc1O 55.3%
O=C(Cc1ccc(-c2ccccc2)cc1)Nc1ccc2c(c1)CCC(=O)N2 58.7%
COC(=O)c1ccc(NC(=O)CSc2nnc(Cc3ccc(C)cc3)c(=O)n2N)cc1 38.6%
O=C1Nc2ccc(F)cc2/C1=C1/SC(=S)N(CCS(=O)(=O)O)C1=O 95.8%
Cc1c(NS(=O)(=O)c2ccc3c4c(cccc24)C(=O)N3)c(=O)n(-c2ccccc2)n1C 133%
O=c1c2scc(-c3ccc(F)cc3)c2ncn1Cc1ccccn1 28.7%
Cc1cccn2cc(CCNS(=O)(=O)c3cccc([N+](=O)[O-])c3)nc12 87.7%
O=C(CCN1CCOCC1)N1N=C(c2ccc(Cl)cc2)CC1c1ccco1 (stereo not given) 93.4%
O=C(COc1ccc(Br)cc1)N/N=C/c1ccccc1 123%
Cc1cccc(-n2ccnc2SCC(=O)Nc2ccc3c(c2)OCCO3)c1C 80.7%
O=C(CN1C(=O)CSC1=O)c1ccc(NC(=O)c2ccccc2)cc1 95.1%
CCSc1nsc(NC(=O)Nc2cccc(C(C)=O)c2)n1 2.47%
O=C(CC1Sc2ccc(C(F)(F)F)cc2NC1=O)NC1CCCCC1 (stereo not given) 107%
O=C(CSc1nc2ccccc2c(=O)[nH]1)Nc1ccc2c(c1)OCCO2 106%
CC(C)c1ccc2nc3sc(C(=O)N4CCOCC4)c(N)c3cc2c1 99.2%
COc1ccc(C(NC(=O)c2cnc(SC)nc2)c2ccncc2)cc1 (stereo not given) 111%
CN(C(=O)Cc1ccsc1)c1nc2c(s1)CCc1c-2cnn1C 117%
Cc1ccc(S(=O)(=O)NC(C)C(=O)Nc2n[nH]c(Cc3ccccc3)n2)cc1 (stereo not given) 125%
CCN(CC)CCNC(=O)c1cnc2c(c(C)nn2-c2ccccc2)c1NCc1ccc(OC)cc1 98.1%
Cc1ccc(S(=O)(=O)c2c(C(=O)N3CCCCC3)cnc3ccc(Cl)cc23)c(C)c1 94.3%

Molecules above that contain a cyano group:
Intracellular bacterial bioluminescence, inactive:
COc1cccc(/C=C/c2nc(C#N)c(N3CCN(C(=O)c4ccccc4Cl)CC3)o2)c1 126%
Cc1ccc(NC(=S)NCCNc2nc3cc4c(cc3cc2C#N)OCO4)cc1C 120%
COCCNC(=S)N1CCCN(c2nc3cc4c(cc3cc2C#N)OCO4)CC1 95.5%
Cc1ccc(N/C=C(\C#N)c2nc(-c3ccc([N+](=O)[O-])cc3)cs2)cc1Cl 112%
Cc1cc(C)c(C#N)c(SCC(=O)Nc2cccc3cccnc23)n1 109%
CCOc1ccccc1NC(=O)NCCNc1nc2cc(C)c(C)cc2cc1C#N 48%
COc1cc(/C=N/n2c(C)cc(C)c(C#N)c2=O)ccc1OC(C)=O 87.9%
